Positions count from the first letter of the chain named. No constants are given. Whether binding was seen depends on the method and setting. In cells and extracts the contact can be indirect. Some entries that bind do so weakly or less than the wild type. For part of these data: Sequences can lack the tags named with a protein.
What was measured:
[1] = molecular target: T1, WT SPP with a C-terminal 3×FLAG tag (human) (UniProt Q8TCT9); test: co-IP; 3xFLAG-tagged WT or D265A SPP precipitated with anti-FLAG beads from clonal SPP KO HEK293 T-Rex Flip In cells expressing CYP51A1TM; 1% DMNG lysis buffer (50 mM Tris-HCl pH 7.5, 150 mM NaCl), 4°C; empty vector as control; immunoblot
T1 sequence: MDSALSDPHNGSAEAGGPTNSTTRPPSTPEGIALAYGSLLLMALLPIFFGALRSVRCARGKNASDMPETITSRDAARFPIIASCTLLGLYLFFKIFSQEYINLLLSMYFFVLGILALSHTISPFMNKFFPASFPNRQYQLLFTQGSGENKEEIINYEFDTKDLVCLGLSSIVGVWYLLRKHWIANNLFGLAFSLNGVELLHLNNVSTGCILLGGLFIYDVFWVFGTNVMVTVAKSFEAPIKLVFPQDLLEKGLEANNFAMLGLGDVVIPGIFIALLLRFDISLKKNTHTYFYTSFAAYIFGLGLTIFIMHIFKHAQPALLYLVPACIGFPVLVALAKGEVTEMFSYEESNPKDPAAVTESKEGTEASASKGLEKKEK

[2] = molecular target: T2, catalytically inactive SPP (D265A) with a C-terminal 3×FLAG tag (human) (UniProt Q8TCT9); test: as above
T2 sequence: T1 sequence with D265A

[3] = molecular target: T3, signal peptide peptidase (SPP, encoded by HM13), endogenous (human (endogenous in HEK293 T-Rex Flip In)) (UniProt Q8TCT9); test: co-IP; endogenous SPP immunoprecipitated with anti-SPP antibody on Protein-G magnetic beads from HEK293 T-Rex Flip In cells expressing CYP51A1TM; 1% DMNG lysis buffer (50 mM Tris-HCl pH 7.5, 150 mM NaCl), 4°C; rabbit IgG as negative control; immunoblot
T3 sequence: T1 sequence

binding [1]: binds | binding [2]: binds | binding [3]: binds
B1: lanosterol demethylase CYP51A1, endogenous (enzyme, UniProt Q16850 1-509)
chain: MAAAAGMLLLGLLQAGGSVLGQAMEKVTGGNLLSMLLIACAFTLSLVYLIRLAAGHLVQLPAGVKSPPYIFSPIPFLGHAIAFGKSPIEFLENAYEKYGPVFSFTMVGKTFTYLLGSDAAALLFNSKNEDLNAEDVYSRLTTPVFGKGVAYDVPNPVFLEQKKMLKSGLNIAHFKQHVSIIEKETKEYFESWGESGEKNVFEALSELIILTASHCLHGKEIRSQLNEKVAQLYADLDGGFSHAAWLLPGWLPLPSFRRRDRAHREIKDIFYKAIQKRRQSQEKIDDILQTLLDATYKDGRPLTDDEVAGMLIGLLLAGQHTSSTTSAWMGFFLARDKTLQKKCYLEQKTVCGENLPPLTYDQLKDLNLLDRCIKETLRLRPPIMIMMRMARTPQTVAGYTIPPGHQVCVSPTVNQRLKDSWVERLDFNPDRYLQDNPASGEKFAYVPFGAGRHRCIGENFAYVQIKTIWSTMLRLYEFDLIDGYFPTVNYTTMIHTPENPVIRYKRRSK

Source: PMC11827857
